# Results from patent US20260158153A1 (priority 2021, published 2026).
# Assay: general procedure: solution-phase peptide synthesis; HATU / diisopropylethylamine
# Conditions: conjugation step
row,Substance,conjugation yield
1,"(2S,3S)-2,3-bis(2,5-dioxo-2,5-dihydro-1H-pyrrol-1-yl)-N1,N4-bis((S)-37-((2-((2-((2-((2-(((1S,9S)-9-ethyl-5-fluoro-9-hydroxy-4-methyl-10,13-dioxo-1,2,3,9,10,12,13,15-octahydrobenzo[de]pyrano[3′,4′:6,7]indolizino[1,2-b]quinolin-1-yl)amino)-2-oxoethyl)amino)-2-oxoethyl)amino)-2-oxoethyl)amino)-2-oxoethyl)carbamoyl)-31,39-dioxo-2,5,8,11,14,17,20,23,26,29-decaoxa-32,38-diazadotetracontan-42-yl)succinamide",47% yield
2,"(4R,4′R)-5,5′-((((16S,24S,25S,33S)-24,25-bis(2,5-dioxo-2,5-dihydro-1H-pyrrol-1-yl)-4,7,10,15,18,23,26,31,34,39,42,45-dodecaoxo-16,33-bis(31-oxo-2,5,8,11,14,17,20,23,26,29-decaoxa-32-azahexatriacontan-36-yl)-3,6,9,14,17,22,27,32,35,40,43,46-dodecaazaoctatetracontanedioyl)bis(azanediyl))bis(4-hydroxy-3,1-phenylene))bis(4-(2-((3S,6S,9R,11R)-6-((S)-sec-butyl)-3,9-diisopropyl-2,8-dimethyl-4,7-dioxo-12-oxa-2,5,8-triazatridecan-11-yl)thiazole-4-carboxamido)pentanoic acid)",31%
3,"(4R,4′R)-5,5′-((((11S,19S,20S,28S)-19,20-bis(2,5-dioxo-2,5-dihydro-1H-pyrrol-1-yl)-4,7,10,13,18,21,26,29,32,35-decaoxo-11,28-bis(31-oxo-2,5,8,11,14,17,20,23,26,29-decaoxa-32-azahexatriacontan-36-yl)-3,6,9,12,17,22,27,30,33,36-decaazaoctatriacontanedioyl)bis(azanediyl))bis(4-hydroxy-3,1-phenylene))bis(4-(2-((6S,9R,11R)-6-((S)-sec-butyl)-9-isopropyl-2,3,3, 8-tetramethyl-4,7,13-trioxo-12-oxa-2,5,8-triazatetradecan-11-yl)thiazole-4-carboxamido)pentanoic acid)",13% yield
4,"(4R,4′R)-5,5′-((((10S,18S,19S,27S)-18,19-bis(2,5-dioxo-2,5-dihydro-1H-pyrrol-1-yl)-4,9,12,17,20,25,28,33-octaoxo-10,27-bis(31-oxo-2,5,8,11,14,17,20,23,26,29-decaoxa-32-azahexatriacontan-36-yl)-3,8,11,16,21,26,29,34-octaazahexatriacontanedioyl)bis(azanediyl))bis(4-hydroxy-3,1-phenylene))bis(4-(2-((3S,6S,9R,11R)-6-((S)-sec-butyl)-3,9-diisopropyl-2,8-dimethyl-4,7-dioxo-12-oxa-2,5,8-triazatridecan-11-yl)thiazole-4-carboxamido)pentanoic acid)",45%

# Same assay, conditions: coupling step
row,Substance,step yield
1,"(1R, 3R)-1-(4-(((R)-5-amino-1-(3-((37S, 40S, 43S)-37-(4-(2, 5-dioxo-2, 5-dihydro-1H-pyrrol-1-yl)butanamido)-40-isopropyl-43-methyl-31, 38, 41-trioxo-2, 5, 8, 11, 14, 17, 20, 23, 26, 29-decaoxa-32, 39, 42-triazatetratetracontan-44-amido)-4-hydroxyphenyl)-5-oxopentan-2-yl)carbamoyl)thiazol-2-yl)-3-((2S, 3S)-2-(2-(dimethylamino)-2-methylpropanamido)-N, 3-dimethylpentanamido)-4-methylpentyl acetate",93%
2,"(2S, 4R)-4-(2-((6S, 9R, 11R)-6-((S)-sec-butyl)-9-isopropyl-2, 3, 3, 8-tetramethyl-4, 7, 13-trioxo-12-oxa-2, 5, 8-triazatetradecan-11-yl)thiazole-4-carboxamido)-5-(4-hydroxy-3-nitrophenyl)-2-methylpentanoic acid",80%
3,"tert-butyl (6S, 9S, 12S, 15S)-6-(3-methoxy-3-oxopropyl)-2, 2, 9, 12, 15-pentamethyl-4, 7, 10, 13-tetraoxo-3-oxa-5, 8, 11, 14-tetraazahexadecan-16-oate",100%
4,"tert-butyl ((S)-37-(((benzyloxy)carbonyl)amino)-31-oxo-2,5,8,11,14,17,20,23,26,29-decaoxa-32-azaoctatriacontan-38-oyl)glycylglycyl-L-alanyl-L-alaninate",100% yield
5,"(4R,4′R)-5,5′-((((16S,24S,25S,33S)-24,25-bis(2,5-dioxo-2,5-dihydro-1H-pyrrol-1-yl)-4,7,10,15,18,23,26,31,34,39,42,45-dodecaoxo-16,33-bis(31-oxo-2,5,8,11,14,17,20,23,26,29-decaoxa-32-azahexatriacontan-36-yl)-3,6,9,14,17,22,27,32,35,40,43,46-dodecaazaoctatetracontanedioyl)bis(azanediyl))bis(4-hydroxy-3,1-phenylene))bis(4-(2-((3S,6S,9R,11R)-6-((S)-sec-butyl)-3,9-diisopropyl-2,8-dimethyl-4,7-dioxo-12-oxa-2,5,8-triazatridecan-11-yl)thiazole-4-carboxamido)pentanoic acid)",99.94%
6,"tert-butyl (S)-(S)-(S)-(37-(((benzyloxy)carbonyl)amino)-31-oxo-2,5,8,11,14,17,20,23,26,29-decaoxa-32-azaoctatriacontan-38-oyl)glycylglycylglycinate",65% yield
7,"tert-butyl ((S)-37-(((benzyloxy)carbonyl)amino)-31-oxo-2,5,8,11,14,17,20,23,26,29-decaoxa-32-azaoctatriacontan-38-oyl)-L-alanyl-L-alanyl-L-alanyl-L-alaninate",57% yield
8,"(2S,4R)-4-((tert-butoxycarbonyl)amino)-5-(3-((S)-37-(4-(2,5-dioxo-2,5-dihydro-1H-pyrrol-1-yl)butanamido)-31,38,43-trioxo-2,5,8,11,14,17,20,23,26,29-decaoxa-32,39,44-triazahexatetracontanamido)-4-hydroxyphenyl)-2-methylpentanoic acid",50%

# Same assay, conditions: late stage modification step
row,Substance,step yield
1,"(R)-4-amino-5-(3-((6S, 9S, 12S, 15S)-6-(4-(2, 5-dioxo-2, 5-dihydro-1H-pyrrol-1-yl)butanamido)-9, 12, 15-trimethyl-3, 7, 10, 13-tetraoxo-2-oxa-8, 11, 14-triazahexadecan-16-amido)-4-hydroxyphenyl)pentanoic acid",>100%
2,"tert-butyl ((S)-37-amino-31-oxo-2,5,8,11,14,17,20,23, 26,29-decaoxa-32-azaoctatriacontan-38-oyl)glycylglycyl-L-alanyl-L-alaninate",74% yield
3,"2, 5-dioxopyrrolidin-1-yl (2S, 5S, 8S, 11S)-16-(2, 5-dioxo-2, 5-dihydro-1H-pyrrol-1-yl)-11-(3-methoxy-3-oxopropyl)-2, 5, 8-trimethyl-4, 7, 10, 13-tetraoxo-3, 6, 9, 12-tetraazahexadecanoate",100%
4,"(2S,5S,13S,14S,22S,25S)-13,14-bis(2,5-dioxo-2,5-dihydro-1H-pyrrol-1-yl)-2,25-diisopropyl-4,7,12,15,20,23-hexaoxo-5,22-bis(31-oxo-2,5,8,11,14,17,20,23,26,29-decaoxa-32-azahexatriacontan-36-yl)-3,6,11,16,21,24-hexaazahexacosanedioic acid",48% yield
5,"(11S,19S,20S,28S)-19,20-bis(2,5-dioxo-2,5-dihydro-1H-pyrrol-1-yl)-4,7,10,13,18,21,26,29,32,35-decaoxo-11,28-bis(31-oxo-2,5,8,11,14,17,20,23,26,29-decaoxa-32-azahexatriacontan-36-yl)-3,6,9,12,17,22,27,30,33,36-decaazaoctatriacontanedioic acid",71%
6,"(R)-4-amino-5-(3-((S)-37-(4-(2, 5-dioxo-2, 5-dihydro-1H-pyrrol-1-yl)butanamido)-31, 38, 43-trioxo-2, 5, 8, 11, 14, 17, 20, 23, 26, 29-decaoxa-32, 39, 44-triazahexatetracontan-46-amido)-4-hydroxyphenyl)pentanoic acid",>100%
7,"tert-butyl (S)-(S)-(S)-(37-(4-(2, 5-dioxo-2, 5-dihydro-1H-pyrrol-1-yl)butanamido)-31, 38-dioxo-2, 5, 8, 11, 14, 17, 20, 23, 26, 29-decaoxa-32, 39-diazatritetracontan-43-oyl)glycylglycylglycinate",95%
8,"(2S,4R)-4-(2-((6S,9R,11R)-9-isopropyl-2,3,3,8-tetramethyl-13-(4-nitrophenoxy)-4,7,13-trioxo-6-propyl-12-oxa-2,5,8-triazatridecan-11-yl)thiazole-4-carboxamido)-2-methyl-5-phenylpentanoic acid",72%
9,"(2S, 4R)-4-amino-5-(3-((6S, 9S, 12S, 15S)-6-(4-(2, 5-dioxo-2, 5-dihydro-1H-pyrrol-1-yl)butanamido)-9, 12, 15-trimethyl-3, 7, 10, 13-tetraoxo-2-oxa-8, 11, 14-triazahexadecan-16-amido)-4-hydroxyphenyl)-2-methylpentanoic acid",100%
10,"tert-butyl (R)-5-(3-((37S,40S,43S)-37-amino-40-isopropyl-43-methyl-31,38,41-trioxo-2,5,8,11,14,17,20,23,26,29-decaoxa-32,39,42-triazatetratetracontan-44-amido)-4-hydroxyphenyl)-4-((tert-butoxycarbonyl)amino)pentanoate",93% yield
11,"((S)-2-(4-(2, 5-dioxo-2, 5-dihydro-1H-pyrrol-1-yl)butanamido)-5-methoxy-5-oxopentanoyl)-L-alanyl-L-alanyl-L-alanine",70%
12,"(S, E)-37-((4-((2-(tert-butoxy)-2-oxoethyl)amino)-4-oxobutyl)carbamoyl)-31, 39, 44-trioxo-2, 5, 8, 11, 14, 17, 20, 23, 26, 29-decaoxa-32, 38, 43-triazaheptatetracont-45-en-47-oic acid",98%
13,"tert-butyl (S)-(S)-(S)-(37-amino-31-oxo-2,5,8,11,14,17,20,23,26,29-decaoxa-32-azaoctatriacontan-38-oyl)glycylglycylglycinate",100% yield
14,"tert-butyl ((S)-37-amino-31-oxo-2,5,8,11,14,17,20,23,26,29-decaoxa-32-azaoctatriacontan-38-oyl)-L-alanyl-L-alanyl-L-alanyl-L-alaninate",100% yield
15,"benzyl (2S, 4R)-5-(3-amino-4-(benzyloxy)phenyl)-4-(2-((6S, 9R, 11R)-6-((S)-sec-butyl)-9-isopropyl-2, 3, 3, 8-tetramethyl-4, 7, 13-trioxo-12-oxa-2, 5, 8-triazatetradecan-11-yl)thiazole-4-carboxamido)-2-methylpentanoate",85%
16,"tert-butyl (R)-5-(3-((37S, 40S, 43S)-37-amino-40-isopropyl-43-methyl-31, 38, 41-trioxo-2, 5, 8, 11, 14, 17, 20, 23, 26, 29-decaoxa-32, 39, 42-triazatetratetracontan-44-amido)-4-hydroxyphenyl)-4-((tert-butoxycarbonyl)amino)pentanoate",93%
